Measurements from PMC6418087.
These are yes or no findings as the source states them, for the method shown. In cells and extracts the contact can be indirect. Some results given as binding are weak or reduced against the parent protein; the word gives no strength.

By UniProt entry, the sequences of proteins in these tests, tags left out. Residues count along the entry.
UniProt Q16665: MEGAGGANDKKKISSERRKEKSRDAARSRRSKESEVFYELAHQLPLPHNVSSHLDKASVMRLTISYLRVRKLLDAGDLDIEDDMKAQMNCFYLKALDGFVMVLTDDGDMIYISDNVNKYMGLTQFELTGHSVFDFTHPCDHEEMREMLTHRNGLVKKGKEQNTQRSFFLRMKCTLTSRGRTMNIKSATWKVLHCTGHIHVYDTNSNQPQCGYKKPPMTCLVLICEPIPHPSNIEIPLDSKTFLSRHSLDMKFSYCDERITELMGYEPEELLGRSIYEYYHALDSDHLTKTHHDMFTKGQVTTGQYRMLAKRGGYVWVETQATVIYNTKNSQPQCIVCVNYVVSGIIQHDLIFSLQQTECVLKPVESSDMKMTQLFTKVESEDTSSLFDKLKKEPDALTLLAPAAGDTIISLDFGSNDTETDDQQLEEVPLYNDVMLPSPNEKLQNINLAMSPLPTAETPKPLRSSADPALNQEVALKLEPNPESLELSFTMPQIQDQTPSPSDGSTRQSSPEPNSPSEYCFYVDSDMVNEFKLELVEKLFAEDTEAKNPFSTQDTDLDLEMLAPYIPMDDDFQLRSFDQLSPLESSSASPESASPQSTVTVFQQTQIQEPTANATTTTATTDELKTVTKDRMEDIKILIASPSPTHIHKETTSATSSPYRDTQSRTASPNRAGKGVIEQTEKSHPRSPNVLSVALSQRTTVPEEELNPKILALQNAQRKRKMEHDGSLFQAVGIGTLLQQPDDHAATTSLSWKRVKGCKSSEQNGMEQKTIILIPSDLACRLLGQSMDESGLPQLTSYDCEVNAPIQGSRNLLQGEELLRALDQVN
UniProt P35869, residues 11-848: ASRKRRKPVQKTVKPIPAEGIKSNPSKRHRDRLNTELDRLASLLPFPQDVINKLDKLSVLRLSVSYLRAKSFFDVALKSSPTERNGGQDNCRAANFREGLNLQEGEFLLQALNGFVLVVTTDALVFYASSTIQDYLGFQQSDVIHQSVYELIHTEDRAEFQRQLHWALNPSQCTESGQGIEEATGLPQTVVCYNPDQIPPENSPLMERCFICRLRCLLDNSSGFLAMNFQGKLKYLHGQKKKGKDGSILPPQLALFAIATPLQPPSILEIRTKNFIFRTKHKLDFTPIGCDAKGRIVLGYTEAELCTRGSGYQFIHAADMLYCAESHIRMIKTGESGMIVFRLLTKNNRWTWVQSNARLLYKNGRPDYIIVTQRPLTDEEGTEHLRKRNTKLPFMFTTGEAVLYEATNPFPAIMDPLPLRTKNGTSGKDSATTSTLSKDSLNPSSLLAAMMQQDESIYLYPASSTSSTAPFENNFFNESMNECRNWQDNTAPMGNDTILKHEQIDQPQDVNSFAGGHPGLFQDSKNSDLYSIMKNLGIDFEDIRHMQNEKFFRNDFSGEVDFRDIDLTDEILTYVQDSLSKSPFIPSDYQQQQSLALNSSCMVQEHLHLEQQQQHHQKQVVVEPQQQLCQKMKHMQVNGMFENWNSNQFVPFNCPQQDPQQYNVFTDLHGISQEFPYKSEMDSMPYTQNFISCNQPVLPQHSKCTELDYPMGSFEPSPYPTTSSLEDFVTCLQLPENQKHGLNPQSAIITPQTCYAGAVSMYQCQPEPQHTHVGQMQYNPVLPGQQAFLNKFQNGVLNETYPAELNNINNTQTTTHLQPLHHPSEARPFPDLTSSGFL
UniProt Q9HBZ2: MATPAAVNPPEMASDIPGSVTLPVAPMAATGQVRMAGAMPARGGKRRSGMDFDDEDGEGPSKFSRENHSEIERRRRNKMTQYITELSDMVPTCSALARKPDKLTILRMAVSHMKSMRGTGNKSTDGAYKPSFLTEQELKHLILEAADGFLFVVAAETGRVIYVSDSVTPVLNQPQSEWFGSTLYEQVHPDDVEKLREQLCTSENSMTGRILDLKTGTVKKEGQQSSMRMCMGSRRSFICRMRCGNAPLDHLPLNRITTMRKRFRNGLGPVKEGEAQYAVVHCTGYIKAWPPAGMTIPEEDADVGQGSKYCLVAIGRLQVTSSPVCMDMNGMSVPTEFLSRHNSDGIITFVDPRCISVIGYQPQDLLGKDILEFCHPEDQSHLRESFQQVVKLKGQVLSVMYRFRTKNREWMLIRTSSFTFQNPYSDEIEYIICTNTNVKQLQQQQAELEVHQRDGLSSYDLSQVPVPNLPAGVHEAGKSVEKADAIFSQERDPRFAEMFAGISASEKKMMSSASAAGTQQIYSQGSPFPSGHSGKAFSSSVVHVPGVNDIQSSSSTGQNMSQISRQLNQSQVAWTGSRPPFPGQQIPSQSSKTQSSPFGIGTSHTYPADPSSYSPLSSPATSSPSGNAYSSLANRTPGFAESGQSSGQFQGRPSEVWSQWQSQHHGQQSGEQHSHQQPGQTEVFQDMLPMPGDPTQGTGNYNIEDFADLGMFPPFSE
UniProt Q13547: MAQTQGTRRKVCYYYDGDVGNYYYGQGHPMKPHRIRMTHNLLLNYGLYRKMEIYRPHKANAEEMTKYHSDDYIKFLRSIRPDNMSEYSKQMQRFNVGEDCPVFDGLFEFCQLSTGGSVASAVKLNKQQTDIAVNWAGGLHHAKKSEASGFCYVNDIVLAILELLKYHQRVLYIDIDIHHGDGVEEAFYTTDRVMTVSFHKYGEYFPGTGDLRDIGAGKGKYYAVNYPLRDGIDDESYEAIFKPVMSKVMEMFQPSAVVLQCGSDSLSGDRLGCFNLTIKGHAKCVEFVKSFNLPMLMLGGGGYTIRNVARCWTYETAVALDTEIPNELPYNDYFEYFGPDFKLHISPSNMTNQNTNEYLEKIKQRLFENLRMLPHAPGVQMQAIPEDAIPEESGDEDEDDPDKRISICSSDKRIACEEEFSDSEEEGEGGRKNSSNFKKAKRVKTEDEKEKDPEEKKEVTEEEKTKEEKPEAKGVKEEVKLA

What was measured:
Assay in all cases: co-IP; endogenous AhR, HIF1α or ARNT2 immunoprecipitated from 100 µg of hREC lysate with anti-AhR, anti-HIF1α or anti-ARNT2 antibodies (2 µg) and protein A and G agarose beads; washed five times with lysis buffer and once with PBS; Western blot; cells pretreated 1 h with simvastatin or calpeptin, then 3 h 3MC
[1] = biological target: hypoxia-inducible factor 1α (human (endogenous in hRECs)) (UniProt Q16665)
[2] = biological target: aryl-hydrocarbon receptor (human (endogenous in hRECs)) (UniProt P35869)
[3] = biological target: ARNT2 (human (endogenous in hRECs)) (UniProt Q9HBZ2)

Question: Which results are given for ARNT2 (from UniProt Q9HBZ2 1-717)?
Answer: binding [1]: binds; binding [2]: binds

Question: Which binding [3] does the source give for “histone deacetylase 1 (from UniProt Q13547 1-482) (enzyme)” here?
Answer: The binding was “binds”.

Question: And the binding [2]?
Answer: The binding was “binds”.

Question: “hypoxia-inducible factor 1α (from UniProt Q16665 1-826)” was tested. Which binding [2] did it give?
Answer: The binding was “binds”.
